{"sequences": {"note": "By UniProt entry, the sequences of proteins in these tests, tags left out. Where a name states a change or a piece, a line headed by the entry shows the natural chain unless it says otherwise. Residues count along the entry.", "UniProt P50613": "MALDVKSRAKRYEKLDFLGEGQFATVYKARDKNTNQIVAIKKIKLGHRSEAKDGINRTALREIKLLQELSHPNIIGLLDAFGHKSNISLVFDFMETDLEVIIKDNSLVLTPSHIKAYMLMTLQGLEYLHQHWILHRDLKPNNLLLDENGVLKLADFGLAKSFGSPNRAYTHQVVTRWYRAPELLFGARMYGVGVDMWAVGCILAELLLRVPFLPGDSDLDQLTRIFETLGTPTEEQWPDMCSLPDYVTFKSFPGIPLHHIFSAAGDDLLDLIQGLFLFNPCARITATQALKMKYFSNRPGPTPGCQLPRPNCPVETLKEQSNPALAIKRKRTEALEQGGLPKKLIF", "UniProt P49336": "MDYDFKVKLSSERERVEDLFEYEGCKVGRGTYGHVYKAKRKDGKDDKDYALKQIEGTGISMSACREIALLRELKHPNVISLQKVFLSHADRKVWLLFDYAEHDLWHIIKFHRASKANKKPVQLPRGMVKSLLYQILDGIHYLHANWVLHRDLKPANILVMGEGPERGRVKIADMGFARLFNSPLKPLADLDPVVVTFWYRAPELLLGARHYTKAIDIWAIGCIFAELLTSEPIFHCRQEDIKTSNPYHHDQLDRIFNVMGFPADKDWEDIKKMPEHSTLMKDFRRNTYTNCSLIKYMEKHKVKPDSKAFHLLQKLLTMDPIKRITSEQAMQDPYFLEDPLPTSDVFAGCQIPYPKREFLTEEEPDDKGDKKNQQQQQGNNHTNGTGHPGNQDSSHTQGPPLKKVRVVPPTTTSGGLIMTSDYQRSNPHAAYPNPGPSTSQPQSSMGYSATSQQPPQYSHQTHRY", "UniProt Q86Z02": "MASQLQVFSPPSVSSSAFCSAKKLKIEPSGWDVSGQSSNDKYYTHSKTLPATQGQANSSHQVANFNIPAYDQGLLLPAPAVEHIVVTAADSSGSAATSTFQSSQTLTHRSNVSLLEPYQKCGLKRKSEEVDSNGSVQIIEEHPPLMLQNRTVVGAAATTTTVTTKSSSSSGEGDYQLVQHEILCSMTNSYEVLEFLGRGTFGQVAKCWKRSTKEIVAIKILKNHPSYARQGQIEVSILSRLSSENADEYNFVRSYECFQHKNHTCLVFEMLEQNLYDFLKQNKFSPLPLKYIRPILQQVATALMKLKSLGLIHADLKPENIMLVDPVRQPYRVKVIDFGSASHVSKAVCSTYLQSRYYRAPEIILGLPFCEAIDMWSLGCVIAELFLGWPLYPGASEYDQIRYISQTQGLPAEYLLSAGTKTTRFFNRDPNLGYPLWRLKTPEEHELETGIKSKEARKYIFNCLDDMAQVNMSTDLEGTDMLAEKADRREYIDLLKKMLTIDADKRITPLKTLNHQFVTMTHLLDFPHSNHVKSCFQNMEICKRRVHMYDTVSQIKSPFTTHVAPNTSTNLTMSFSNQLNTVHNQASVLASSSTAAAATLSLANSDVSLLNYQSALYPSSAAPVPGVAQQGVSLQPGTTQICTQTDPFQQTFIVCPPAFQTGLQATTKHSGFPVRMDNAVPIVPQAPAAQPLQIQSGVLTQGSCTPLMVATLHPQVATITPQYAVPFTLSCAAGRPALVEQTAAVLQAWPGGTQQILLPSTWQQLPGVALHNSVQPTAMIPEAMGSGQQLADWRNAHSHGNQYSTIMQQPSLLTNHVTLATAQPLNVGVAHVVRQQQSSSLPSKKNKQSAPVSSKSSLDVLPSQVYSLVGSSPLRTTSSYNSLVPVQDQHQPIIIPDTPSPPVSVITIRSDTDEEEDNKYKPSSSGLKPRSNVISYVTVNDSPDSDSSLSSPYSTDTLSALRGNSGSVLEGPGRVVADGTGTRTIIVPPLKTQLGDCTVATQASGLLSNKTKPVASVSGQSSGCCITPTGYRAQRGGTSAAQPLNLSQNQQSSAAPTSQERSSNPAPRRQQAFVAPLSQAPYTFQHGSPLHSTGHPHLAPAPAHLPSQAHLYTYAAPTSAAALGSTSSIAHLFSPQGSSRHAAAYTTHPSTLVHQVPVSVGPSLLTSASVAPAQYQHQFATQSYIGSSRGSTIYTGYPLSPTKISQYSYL", "UniProt P08069, 31-1367": "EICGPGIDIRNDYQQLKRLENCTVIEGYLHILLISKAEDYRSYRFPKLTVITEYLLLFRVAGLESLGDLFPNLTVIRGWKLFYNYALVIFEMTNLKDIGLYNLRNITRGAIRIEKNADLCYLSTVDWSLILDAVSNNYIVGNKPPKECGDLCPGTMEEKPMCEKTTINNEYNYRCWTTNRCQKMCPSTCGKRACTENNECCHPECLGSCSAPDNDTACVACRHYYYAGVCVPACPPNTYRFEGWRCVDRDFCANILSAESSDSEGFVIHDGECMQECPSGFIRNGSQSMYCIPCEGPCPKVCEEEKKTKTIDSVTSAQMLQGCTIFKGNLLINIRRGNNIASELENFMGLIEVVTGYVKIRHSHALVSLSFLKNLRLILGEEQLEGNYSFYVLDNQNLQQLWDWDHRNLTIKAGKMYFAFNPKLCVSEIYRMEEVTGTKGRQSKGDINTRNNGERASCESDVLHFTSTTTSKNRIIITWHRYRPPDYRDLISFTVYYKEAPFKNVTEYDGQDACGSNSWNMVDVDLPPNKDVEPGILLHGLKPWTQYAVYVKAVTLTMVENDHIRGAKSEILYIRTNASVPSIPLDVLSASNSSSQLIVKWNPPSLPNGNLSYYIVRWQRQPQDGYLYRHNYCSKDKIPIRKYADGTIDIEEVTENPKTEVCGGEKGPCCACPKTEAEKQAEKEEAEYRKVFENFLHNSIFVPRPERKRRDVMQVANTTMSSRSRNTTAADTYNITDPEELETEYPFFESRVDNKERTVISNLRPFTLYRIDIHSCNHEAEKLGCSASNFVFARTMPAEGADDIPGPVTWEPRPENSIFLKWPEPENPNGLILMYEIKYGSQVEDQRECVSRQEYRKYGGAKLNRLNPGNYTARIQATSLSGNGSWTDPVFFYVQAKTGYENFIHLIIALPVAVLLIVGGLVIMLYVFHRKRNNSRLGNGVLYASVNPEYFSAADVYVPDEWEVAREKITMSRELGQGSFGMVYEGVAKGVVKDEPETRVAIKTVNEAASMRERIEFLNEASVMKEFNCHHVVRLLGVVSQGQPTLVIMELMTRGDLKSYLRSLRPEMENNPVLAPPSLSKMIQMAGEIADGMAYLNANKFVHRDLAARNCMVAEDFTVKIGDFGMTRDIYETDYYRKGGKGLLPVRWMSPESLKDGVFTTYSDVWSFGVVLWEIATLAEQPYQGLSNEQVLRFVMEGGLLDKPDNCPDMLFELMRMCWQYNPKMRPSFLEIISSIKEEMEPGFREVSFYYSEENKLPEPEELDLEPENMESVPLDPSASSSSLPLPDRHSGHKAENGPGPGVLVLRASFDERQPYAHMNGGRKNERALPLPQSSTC", "UniProt P57078": "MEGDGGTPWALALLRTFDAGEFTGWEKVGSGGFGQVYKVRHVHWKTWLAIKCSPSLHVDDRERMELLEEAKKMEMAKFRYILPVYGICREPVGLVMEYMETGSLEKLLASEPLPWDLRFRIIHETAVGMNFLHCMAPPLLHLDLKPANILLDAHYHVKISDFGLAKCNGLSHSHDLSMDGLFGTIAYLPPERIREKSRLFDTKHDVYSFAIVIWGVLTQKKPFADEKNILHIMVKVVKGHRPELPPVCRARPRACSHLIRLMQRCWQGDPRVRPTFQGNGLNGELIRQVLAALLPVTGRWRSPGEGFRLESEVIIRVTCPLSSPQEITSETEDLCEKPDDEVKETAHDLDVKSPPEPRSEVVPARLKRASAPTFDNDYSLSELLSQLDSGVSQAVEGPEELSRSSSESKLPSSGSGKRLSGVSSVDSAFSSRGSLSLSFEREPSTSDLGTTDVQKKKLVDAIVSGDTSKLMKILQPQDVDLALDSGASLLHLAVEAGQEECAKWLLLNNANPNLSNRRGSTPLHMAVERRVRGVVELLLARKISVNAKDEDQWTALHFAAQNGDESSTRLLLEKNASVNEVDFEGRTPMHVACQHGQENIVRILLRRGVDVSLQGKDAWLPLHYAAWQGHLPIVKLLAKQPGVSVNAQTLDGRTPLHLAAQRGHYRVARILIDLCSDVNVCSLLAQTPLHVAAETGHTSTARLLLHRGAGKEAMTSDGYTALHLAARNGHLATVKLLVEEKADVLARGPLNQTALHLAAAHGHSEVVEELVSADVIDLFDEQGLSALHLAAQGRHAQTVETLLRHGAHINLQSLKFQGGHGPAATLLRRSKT", "UniProt O43293": "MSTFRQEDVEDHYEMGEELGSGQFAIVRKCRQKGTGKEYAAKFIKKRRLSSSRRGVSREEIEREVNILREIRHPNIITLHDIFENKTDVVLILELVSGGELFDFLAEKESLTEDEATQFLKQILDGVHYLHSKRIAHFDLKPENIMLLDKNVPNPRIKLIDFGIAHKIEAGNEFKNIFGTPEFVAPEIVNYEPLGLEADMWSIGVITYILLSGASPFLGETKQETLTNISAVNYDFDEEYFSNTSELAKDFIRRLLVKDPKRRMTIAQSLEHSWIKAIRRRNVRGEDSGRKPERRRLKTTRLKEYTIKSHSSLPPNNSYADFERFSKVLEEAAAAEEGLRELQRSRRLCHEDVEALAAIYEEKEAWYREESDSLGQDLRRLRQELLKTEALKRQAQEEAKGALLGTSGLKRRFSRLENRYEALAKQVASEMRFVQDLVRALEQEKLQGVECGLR", "UniProt Q9UQM7, whole entry": "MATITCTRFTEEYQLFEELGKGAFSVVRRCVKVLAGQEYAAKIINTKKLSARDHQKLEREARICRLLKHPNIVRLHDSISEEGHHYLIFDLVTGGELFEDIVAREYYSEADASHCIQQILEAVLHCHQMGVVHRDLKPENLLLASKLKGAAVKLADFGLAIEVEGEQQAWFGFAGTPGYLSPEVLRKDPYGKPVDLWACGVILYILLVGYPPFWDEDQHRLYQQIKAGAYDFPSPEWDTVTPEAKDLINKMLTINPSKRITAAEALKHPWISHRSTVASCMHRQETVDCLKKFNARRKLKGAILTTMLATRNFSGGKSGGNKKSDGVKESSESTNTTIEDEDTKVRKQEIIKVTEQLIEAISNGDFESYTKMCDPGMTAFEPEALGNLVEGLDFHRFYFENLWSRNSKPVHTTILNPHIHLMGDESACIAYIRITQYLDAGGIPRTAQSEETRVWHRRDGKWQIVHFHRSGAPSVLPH", "UniProt Q9UIK4": "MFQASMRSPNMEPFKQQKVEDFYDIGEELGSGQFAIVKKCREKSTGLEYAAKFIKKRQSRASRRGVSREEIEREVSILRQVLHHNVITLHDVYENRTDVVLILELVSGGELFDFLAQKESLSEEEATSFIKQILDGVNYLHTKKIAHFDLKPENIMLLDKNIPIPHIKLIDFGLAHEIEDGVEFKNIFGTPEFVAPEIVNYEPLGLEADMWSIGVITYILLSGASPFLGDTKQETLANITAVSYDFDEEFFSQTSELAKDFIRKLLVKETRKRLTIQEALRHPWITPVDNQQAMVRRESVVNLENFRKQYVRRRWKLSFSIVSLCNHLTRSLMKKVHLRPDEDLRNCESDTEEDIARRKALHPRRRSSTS", "UniProt Q9NRM7": "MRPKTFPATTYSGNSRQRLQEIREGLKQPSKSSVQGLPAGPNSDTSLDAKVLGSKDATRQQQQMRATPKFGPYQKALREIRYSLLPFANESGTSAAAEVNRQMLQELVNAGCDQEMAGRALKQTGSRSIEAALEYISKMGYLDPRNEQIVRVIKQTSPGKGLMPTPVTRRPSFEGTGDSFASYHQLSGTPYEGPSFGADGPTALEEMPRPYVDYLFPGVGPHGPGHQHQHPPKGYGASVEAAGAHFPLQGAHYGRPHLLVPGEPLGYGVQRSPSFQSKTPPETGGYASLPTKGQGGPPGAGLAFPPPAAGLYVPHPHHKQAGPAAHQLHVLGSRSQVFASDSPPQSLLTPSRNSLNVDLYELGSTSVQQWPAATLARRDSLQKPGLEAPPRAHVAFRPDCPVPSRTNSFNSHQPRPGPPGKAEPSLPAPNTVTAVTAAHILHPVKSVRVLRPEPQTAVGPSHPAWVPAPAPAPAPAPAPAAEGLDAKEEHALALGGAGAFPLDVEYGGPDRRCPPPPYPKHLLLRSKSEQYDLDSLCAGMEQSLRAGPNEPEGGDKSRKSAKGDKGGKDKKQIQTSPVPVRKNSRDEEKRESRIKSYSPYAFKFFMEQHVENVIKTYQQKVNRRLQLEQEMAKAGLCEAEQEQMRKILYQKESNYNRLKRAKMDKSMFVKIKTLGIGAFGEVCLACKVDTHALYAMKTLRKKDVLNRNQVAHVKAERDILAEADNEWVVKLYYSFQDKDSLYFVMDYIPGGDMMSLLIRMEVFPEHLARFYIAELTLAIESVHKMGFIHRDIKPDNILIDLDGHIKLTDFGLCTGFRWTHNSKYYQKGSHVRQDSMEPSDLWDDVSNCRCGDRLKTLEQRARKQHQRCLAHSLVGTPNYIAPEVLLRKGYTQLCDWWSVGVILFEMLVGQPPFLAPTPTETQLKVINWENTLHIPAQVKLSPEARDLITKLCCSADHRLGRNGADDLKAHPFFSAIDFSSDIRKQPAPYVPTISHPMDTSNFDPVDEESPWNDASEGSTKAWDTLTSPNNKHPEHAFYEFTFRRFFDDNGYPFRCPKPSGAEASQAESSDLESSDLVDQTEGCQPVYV"}, "source": "paper PMC8213057", "about": "“Targeting ALK2: An Open Science Approach to Developing Therapeutics for the Treatment of Diffuse Intrinsic Pontine Glioma” (Journal of Medicinal Chemistry, 2020)", "key": {"CAMK1g": {"biological_target": "CAMK1g (Homo sapiens, UniProt Q96NX5)", "details": "1 μM; Run 1, Run 2"}, "CDK16/cyclin Y (PCTAIRE)": {"biological_target": "CDK16/cyclin Y (PCTAIRE) (Homo sapiens, UniProt Q00536)", "details": "1 μM; Run 1, Run 2"}, "CDK7/cyclin H": {"biological_target": "CDK7/cyclin H (Homo sapiens, UniProt P50613)", "details": "1 μM; Run 1, Run 2"}, "CDK8/cyclin C": {"biological_target": "CDK8/cyclin C (Homo sapiens, UniProt P49336)", "details": "1 μM; Run 1, Run 2"}, "CK1d": {"biological_target": "CK1d (Homo sapiens, UniProt P48730)", "details": "1 μM; Run 1, Run 2"}, "ERBB4/HER4": {"biological_target": "ERBB4/HER4 (Homo sapiens, UniProt Q15303)", "details": "1 μM; Run 1, Run 2"}, "FYN [1]": {"biological_target": "T1, FYN (Homo sapiens, UniProt P06241)", "details": "1 μM; Run 1, Run 2"}, "HIPK1": {"biological_target": "HIPK1 (Homo sapiens, UniProt Q86Z02)", "details": "1 μM; Run 1, Run 2"}, "HIPK3": {"biological_target": "HIPK3 (Homo sapiens, UniProt Q9H422)", "details": "1 μM; Run 1, Run 2"}, "IGF1R": {"biological_target": "IGF1R (Homo sapiens, UniProt P08069)", "details": "1 μM; Run 1, Run 2"}, "IKKb/IKBKB": {"biological_target": "IKKb/IKBKB (Homo sapiens, UniProt O14920)", "details": "1 μM; Run 1, Run 2"}, "LYN": {"biological_target": "LYN (Homo sapiens, UniProt P07948)", "details": "1 μM; Run 1, Run 2"}, "MARK3": {"biological_target": "MARK3 (Homo sapiens, UniProt P27448)", "details": "1 μM; Run 1, Run 2"}, "NEK11": {"biological_target": "NEK11 (Homo sapiens, UniProt Q8NG66)", "details": "1 μM; Run 1, Run 2"}, "NEK8": {"biological_target": "NEK8 (Homo sapiens, UniProt Q86SG6)", "details": "1 μM; Run 1, Run 2"}, "NEK9": {"biological_target": "NEK9 (Homo sapiens, UniProt Q8TD19)", "details": "1 μM; Run 1, Run 2"}, "PAK2": {"biological_target": "PAK2 (Homo sapiens, UniProt Q13177)", "details": "1 μM; Run 1, Run 2"}, "RIPK4": {"biological_target": "RIPK4 (Homo sapiens, UniProt P57078)", "details": "1 μM; Run 1, Run 2"}, "SNRK": {"biological_target": "SNRK (Homo sapiens, UniProt Q9NRH2)", "details": "1 μM; Run 1, Run 2"}, "STK39/STLK3": {"biological_target": "STK39/STLK3 (Homo sapiens, UniProt Q9UEW8)", "details": "1 μM; Run 1, Run 2"}, "TBK1": {"biological_target": "TBK1 (Homo sapiens, UniProt Q9UHD2)", "details": "1 μM; Run 1, Run 2"}, "TRKB": {"biological_target": "TRKB (Homo sapiens, UniProt Q16620)", "details": "1 μM; Run 1, Run 2"}, "TSSK3/STK22C": {"biological_target": "TSSK3/STK22C (Homo sapiens, UniProt Q96PN8)", "details": "1 μM; Run 1, Run 2"}, "TTBK2": {"biological_target": "TTBK2 (Homo sapiens, UniProt Q6IQ55)", "details": "1 μM; Run 1, Run 2"}, "YES/YES1": {"biological_target": "YES/YES1 (Homo sapiens, UniProt P07947)", "details": "1 μM; Run 1, Run 2"}, "ZIPK/DAPK3": {"biological_target": "ZIPK/DAPK3 (Homo sapiens, UniProt O43293)", "details": "1 μM; Run 1, Run 2"}, "ALK": {"biological_target": "ALK (Homo sapiens, UniProt Q9UM73)", "assay": "biochemical", "details": "read-out: % enzyme activity, 1 μM; Run 1, Run 2"}, "Aurora C": {"biological_target": "Aurora C (Homo sapiens, UniProt Q9UQB9)", "assay": "biochemical", "details": "read-out: % enzyme activity, 1 μM; Run 1, Run 2"}, "BRK": {"biological_target": "BRK (Homo sapiens, UniProt Q13882)", "assay": "biochemical", "details": "read-out: % enzyme activity, 1 μM; Run 1, Run 2"}, "CAMK2a": {"biological_target": "CAMK2a (Homo sapiens, UniProt Q9UQM7)", "assay": "biochemical", "details": "read-out: % enzyme activity, 1 μM; Run 1, Run 2"}, "CDK2/Cyclin A1": {"biological_target": "CDK2/Cyclin A1 (Homo sapiens, UniProt P24941)", "assay": "biochemical", "details": "read-out: % enzyme activity, 1 μM; Run 1, Run 2"}, "CK1g1": {"biological_target": "CK1g1 (Homo sapiens, UniProt Q9HCP0)", "assay": "biochemical", "details": "read-out: % enzyme activity, 1 μM; Run 1, Run 2"}, "DAPK2": {"biological_target": "DAPK2 (Homo sapiens, UniProt Q9UIK4)", "assay": "biochemical", "details": "read-out: % enzyme activity, 1 μM; Run 1, Run 2"}, "FYN [2]": {"biological_target": "T1, FYN", "assay": "biochemical", "details": "read-out: % enzyme activity, 1 μM; Run 1, Run 2"}, "IRAK4": {"biological_target": "IRAK4 (Homo sapiens, UniProt Q9NWZ3)", "assay": "biochemical", "details": "read-out: % enzyme activity, 1 μM; Run 1, Run 2"}, "LATS2": {"biological_target": "LATS2 (Homo sapiens, UniProt Q9NRM7)", "assay": "biochemical", "details": "read-out: % enzyme activity, 1 μM; Run 1, Run 2"}, "LKB1": {"biological_target": "LKB1 (Homo sapiens, UniProt Q15831)", "assay": "biochemical", "details": "read-out: % enzyme activity, 1 μM; Run 1, Run 2"}, "MARK4": {"biological_target": "MARK4 (Homo sapiens, UniProt Q96L34)", "assay": "biochemical", "details": "read-out: % enzyme activity, 1 μM; Run 1, Run 2"}, "PAK5": {"biological_target": "PAK5 (Homo sapiens, UniProt Q9P286)", "assay": "biochemical", "details": "read-out: % enzyme activity, 1 μM; Run 1, Run 2"}, "PKG1a": {"biological_target": "PKG1a (Homo sapiens, UniProt Q13976)", "assay": "biochemical", "details": "read-out: % enzyme activity, 1 μM; Run 1, Run 2"}, "SRMS": {"biological_target": "SRMS (Homo sapiens, UniProt Q9H3Y6)", "assay": "biochemical", "details": "read-out: % enzyme activity, 1 μM; Run 1, Run 2"}, "STK38/NDR1": {"biological_target": "STK38/NDR1 (Homo sapiens, UniProt Q15208)", "assay": "biochemical", "details": "read-out: % enzyme activity, 1 μM; Run 1, Run 2"}, "STK38L/NDR2": {"biological_target": "STK38L/NDR2 (Homo sapiens, UniProt Q9Y2H1)", "assay": "biochemical", "details": "read-out: % enzyme activity, 1 μM; Run 1, Run 2"}}, "data": [{"compound": "COc1cc(-c2cncc(-c3ccc(N4CCN(C(C)C)CC4)cc3)c2C)cc(F)c1C(N)=O", "note": "[Compound 26b, 2-Fluoro-4-(5-(4-(4-isopropylpiperazin-1-yl)phenyl)-4-methylpyridin-3-yl)-6-methoxybenzamide]", "values": [{"measurement": "% enzyme activity", "setting": "CAMK1g", "value": 97.85, "unit": "%"}, {"measurement": "% enzyme activity", "setting": "CDK16/cyclin Y (PCTAIRE)", "value": 93.46, "unit": "%"}, {"measurement": "% enzyme activity", "setting": "CDK7/cyclin H", "value": 101.47, "unit": "%"}, {"measurement": "% enzyme activity", "setting": "CDK8/cyclin C", "value": 89.57, "unit": "%"}, {"measurement": "% enzyme activity", "setting": "CK1d", "value": 99.03, "unit": "%"}, {"measurement": "% enzyme activity", "setting": "ERBB4/HER4", "value": 100.25, "unit": "%"}, {"measurement": "% enzyme activity", "setting": "FYN [1]", "value": 119.07, "unit": "%"}, {"measurement": "% enzyme activity", "setting": "HIPK1", "value": 99.62, "unit": "%"}, {"measurement": "% enzyme activity", "setting": "HIPK3", "value": 85.10, "unit": "%"}, {"measurement": "% enzyme activity", "setting": "IGF1R", "value": 99.60, "unit": "%"}, {"measurement": "% enzyme activity", "setting": "IKKb/IKBKB", "value": 108.24, "unit": "%"}, {"measurement": "% enzyme activity", "setting": "LYN", "value": 82.25, "unit": "%"}, {"measurement": "% enzyme activity", "setting": "MARK3", "value": 91.46, "unit": "%"}, {"measurement": "% enzyme activity", "setting": "NEK11", "value": 89.23, "unit": "%"}, {"measurement": "% enzyme activity", "setting": "NEK8", "value": 100.17, "unit": "%"}, {"measurement": "% enzyme activity", "setting": "NEK9", "value": 87.78, "unit": "%"}, {"measurement": "% enzyme activity", "setting": "PAK2", "value": 104.17, "unit": "%"}, {"measurement": "% enzyme activity", "setting": "RIPK4", "value": 77.02, "unit": "%"}, {"measurement": "% enzyme activity", "setting": "SNRK", "value": 107.97, "unit": "%"}, {"measurement": "% enzyme activity", "setting": "STK39/STLK3", "value": 94.07, "unit": "%"}, {"measurement": "% enzyme activity", "setting": "TBK1", "value": 83.46, "unit": "%"}, {"measurement": "% enzyme activity", "setting": "TRKB", "value": 105.99, "unit": "%"}, {"measurement": "% enzyme activity", "setting": "TSSK3/STK22C", "value": 94.89, "unit": "%"}, {"measurement": "% enzyme activity", "setting": "TTBK2", "value": 94.77, "unit": "%"}, {"measurement": "% enzyme activity", "setting": "YES/YES1", "value": 98.27, "unit": "%"}, {"measurement": "% enzyme activity", "setting": "ZIPK/DAPK3", "value": 105.01, "unit": "%"}, {"measurement": "remaining activity at 1 µM", "setting": "ALK", "value": 103, "unit": "%"}, {"measurement": "remaining activity at 1 µM", "setting": "Aurora C", "value": 101, "unit": "%"}, {"measurement": "remaining activity at 1 µM", "setting": "BRK", "value": 65.3, "unit": "%"}, {"measurement": "remaining activity at 1 µM", "setting": "CAMK2a", "value": 89.9, "unit": "%"}, {"measurement": "remaining activity at 1 µM", "setting": "CDK2/Cyclin A1", "value": 112, "unit": "%"}, {"measurement": "remaining activity at 1 µM", "setting": "CK1g1", "value": 61.1, "unit": "%"}, {"measurement": "remaining activity at 1 µM", "setting": "DAPK2", "value": 104, "unit": "%"}, {"measurement": "remaining activity at 1 µM", "setting": "FYN [2]", "value": 122, "unit": "%"}, {"measurement": "remaining activity at 1 µM", "setting": "IRAK4", "value": 88.3, "unit": "%"}, {"measurement": "remaining activity at 1 µM", "setting": "LATS2", "value": 110, "unit": "%"}, {"measurement": "remaining activity at 1 µM", "setting": "LKB1", "value": 92.5, "unit": "%"}, {"measurement": "remaining activity at 1 µM", "setting": "MARK4", "value": 83.5, "unit": "%"}, {"measurement": "remaining activity at 1 µM", "setting": "PAK5", "value": 96.7, "unit": "%"}, {"measurement": "remaining activity at 1 µM", "setting": "PKG1a", "value": 104, "unit": "%"}, {"measurement": "remaining activity at 1 µM", "setting": "SRMS", "value": 98.8, "unit": "%"}, {"measurement": "remaining activity at 1 µM", "setting": "STK38/NDR1", "value": 91.5, "unit": "%"}, {"measurement": "remaining activity at 1 µM", "setting": "STK38L/NDR2", "value": 95.3, "unit": "%"}]}]}
